Legend:
[1] = PAMPA-BBB in vitro blood-brain barrier permeation assay
[2] = PAMPA-BBB reported values; ref [35],[36]; cited from earlier work

**Q.** For `COc1cc2c(cc1OC)C(=O)C(CC1CCN(Cc3ccccc3)CC1)C2` (stereo not drawn) [Donepezil], which Papp at 10 h, 25 μg/mL ([1]; PAMPA, pH 7.4) is on record?
**A.** 10.1 ± 0.66 ×10⁻⁶ cm/s

**Q.** What about the “CNS (±)” value ([1]; PAMPA-BBB classification from Pe) of the same compound?
**A.** CNS + (CNS +: (high BBB permeability), Pe (×10^−6 cm/s) > 3.95)

**Q.** And the “Pe(ref.)” value [2]?
**A.** 10 ± 1 ×10^−6 cm/s
